Results are given in words; binding and its absence hold for the method and conditions named. In cells and extracts the contact can be indirect. Some binding calls cover weakened binding; strength is not graded here.
Biological target: V5–β-arrestin1 (UniProt P49407)
Assay: co-IP; lysates of transiently transfected HEK293T cells co-expressing Flag-CCR5, V5–β-arrestin1 and HA-p85α/HA-p85β, in the presence of CCL5; lysis in 20 mM Tris-HCl, 150 mM NaCl, 1 mM EDTA, 1% NP-40; antibody or IgG 12 h at 4 °C, protein A/G magnetic beads; samples without β-arrestin1 also run

The chains behind the UniProt entries cited, without tags or fusion partners.
UniProt P49407: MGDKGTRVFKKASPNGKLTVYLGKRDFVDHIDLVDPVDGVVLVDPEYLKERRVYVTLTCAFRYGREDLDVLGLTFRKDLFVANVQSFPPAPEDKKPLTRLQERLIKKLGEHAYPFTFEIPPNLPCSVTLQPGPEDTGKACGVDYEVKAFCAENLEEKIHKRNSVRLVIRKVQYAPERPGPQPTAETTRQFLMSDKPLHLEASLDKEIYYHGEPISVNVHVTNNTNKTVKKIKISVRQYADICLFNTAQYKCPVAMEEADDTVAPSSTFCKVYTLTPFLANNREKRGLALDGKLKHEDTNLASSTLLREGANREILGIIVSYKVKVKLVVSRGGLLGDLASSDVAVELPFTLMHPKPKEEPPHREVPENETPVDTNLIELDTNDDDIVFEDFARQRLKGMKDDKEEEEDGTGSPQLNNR
UniProt O00459: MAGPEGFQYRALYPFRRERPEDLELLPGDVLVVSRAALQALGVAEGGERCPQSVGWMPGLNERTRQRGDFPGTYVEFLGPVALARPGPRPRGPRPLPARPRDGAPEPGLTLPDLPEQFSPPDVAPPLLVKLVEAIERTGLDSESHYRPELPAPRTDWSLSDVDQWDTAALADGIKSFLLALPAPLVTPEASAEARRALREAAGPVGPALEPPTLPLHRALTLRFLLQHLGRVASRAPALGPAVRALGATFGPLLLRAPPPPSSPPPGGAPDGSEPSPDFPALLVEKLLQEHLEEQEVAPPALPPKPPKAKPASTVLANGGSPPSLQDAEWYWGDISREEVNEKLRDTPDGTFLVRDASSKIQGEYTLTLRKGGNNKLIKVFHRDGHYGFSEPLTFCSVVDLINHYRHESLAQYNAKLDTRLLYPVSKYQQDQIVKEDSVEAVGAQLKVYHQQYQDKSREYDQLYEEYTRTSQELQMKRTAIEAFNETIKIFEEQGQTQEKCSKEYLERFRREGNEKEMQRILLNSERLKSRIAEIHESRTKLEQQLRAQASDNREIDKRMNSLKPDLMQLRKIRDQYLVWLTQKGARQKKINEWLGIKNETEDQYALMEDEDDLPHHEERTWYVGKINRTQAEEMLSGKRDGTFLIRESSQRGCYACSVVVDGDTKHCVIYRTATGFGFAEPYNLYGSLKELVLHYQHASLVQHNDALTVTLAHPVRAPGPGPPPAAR

binding: binds
Substance: HA-p85β (from UniProt O00459 1-728)

— PMC12570517
